PubChem BioAssay AID504834 (National Center for Advancing Translational Sciences (NCATS), 2011)
About 22,000 (6.9%) of roughly 320,000 compounds were called active. The inconclusive results got no clear call from the source; some entries with a clear call stand among them for comparison. Calls come from the whole dose curve; as a rule, active = well fitted inhibition curve with a large enough effect; inconclusive = small, poorly fitted or top-dose-only effect, or another doubt; inactive = no such curve, though single readings can be large or run the other way. Potencies beside an inconclusive call are fits to weak or partial responses and may not hold up.

Assay: Primary qHTS for delayed death inhibitors of the malarial parasite plastid, 96 hour incubation
Details: P. falciparum luciferase reporter growth; series mostly up to 28.7 µM
Summary of the method: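 Readout is luminescence from an integrated firefly luciferase in P. falciparum. Red cells, 2% hematocrit and 0.05% parasitemia final, were cultured with compound through two parasite generations (96 hours) at 37 C, 5% CO2.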
Potency is the fitted concentration of half-maximal effect.

Row | SMILES | Potency
1 | Cc1nc(C)c(-c2nnc(-c3ccccc3Cl)o2)cc1C(=O)NN | inconclusive: 18.5 µM [inhibitor, single point]
2 | O=C(N/N=C/c1cccnc1)c1ccco1 | inactive
3 | CCCCOc1ccc(C(=O)NCCCC(=O)N2CCCCC2)cc1 | inactive
4 | C=CCNC(=O)COC(=O)c1ccc(C)c(NC(=O)c2ccco2)c1 | inactive
5 | COc1ccccc1C(c1nnnn1C(C)(C)C)N1CCN(C(=O)c2ccco2)CC1 (configuration not stated) | inconclusive: 16.5 µM [inhibitor, partial curve, poor fit]
6 | O=c1[nH][nH]c(C(F)(F)F)c1C=NCc1cccs1 | inconclusive: 2.94 µM [inhibitor, single point]
7 | CCCCNC(=O)NNC(=O)COc1cccc(C)c1C | inactive
8 | COC(=O)C(C)Sc1nc(NCc2ccccc2)nc(N(C)C)n1 (configuration not stated) | inactive
9 | CN(C(=O)CCCOc1ccc2[nH]c(=O)ccc2c1)C1CCCCC1 | active: 0.601 µM
10 | CC(C)Cn1nc(C(=O)Nc2cccc(C(=O)NC3CC3)c2)c2ccccc2c1=O | inconclusive: 14.7 µM [inhibitor, single point]
11 | O=C(NC(=S)NNC(=O)[C@H]1C[C@@H]1c1ccccc1)c1cccc(F)c1 | inconclusive: 3.7 µM [inhibitor, partial curve, poor fit]
12 | O=C(NCCN1CCOCC1)C(=O)NCC1OCCN1S(=O)(=O)c1ccccc1 (configuration not stated) | inconclusive: 11.7 µM [inhibitor, single point]
13 | Cc1ccc(C)c(NC(=S)Nc2ncccc2C)c1 | inconclusive: 0.0165 µM [inhibitor, full curve, poor fit]
14 | O=C(Nc1ccccc1)N1CCC(C(=O)N2CCN(Cc3ccccc3)CC2)CC1 | inactive
15 | O=C(O)C1C2CCC(C2)C1C(=O)NCCc1ccccc1 (configuration not stated) | inactive
16 | COc1cccc(C(=O)Nc2ccc(C)cc2)c1 | inconclusive: 11.7 µM [inhibitor, partial curve, poor fit]
17 | CCOC(=O)N1CCN(c2ncnc3c2[nH]c2ccc(F)cc23)CC1 | active: 13.1 µM
18 | Cc1ccc(CNC(=O)CSCc2ccccc2F)cc1 | inconclusive: 10.4 µM [inhibitor, single point]
19 | CCCCOc1ccc(C(=O)NCC(=O)NCC(c2cccs2)N2CCOCC2)cc1 (configuration not stated) | inactive
20 | COc1cc(/C=C2\SC(=Nc3ccc(N4CCOCC4)cc3)N(C)C2=O)ccc1OC(C)C(=O)O (configuration not stated) | inconclusive: 18.5 µM [inhibitor, single point]
21 | CCOc1ccc2ccccc2c1CNCCN1CCOCC1 | active: 5.22 µM
22 | Cc1c(C(=O)N(Cc2cccc(Br)c2)C2CCS(=O)(=O)C2)oc2ccc(F)cc12 (configuration not stated) | active: 13.1 µM

In a second layout: entries from further up.
Row	SMILES	Potency
17	CCOC(=O)N1CCN(c2ncnc3c2[nH]c2ccc(F)cc23)CC1	active: 13.1 µM
18	Cc1ccc(CNC(=O)CSCc2ccccc2F)cc1	inconclusive: 10.4 µM [inhibitor, single point]
19	CCCCOc1ccc(C(=O)NCC(=O)NCC(c2cccs2)N2CCOCC2)cc1 (configuration not stated)	inactive
20	COc1cc(/C=C2\SC(=Nc3ccc(N4CCOCC4)cc3)N(C)C2=O)ccc1OC(C)C(=O)O (configuration not stated)	inconclusive: 18.5 µM [inhibitor, single point]
21	CCOc1ccc2ccccc2c1CNCCN1CCOCC1	active: 5.22 µM
